According to PubChem BioAssay AID2551 (National Center for Advancing Translational Sciences (NCATS), 2010):
Among all 310,000 compounds or so, about 17,000 (5.5%) were called active. Inconclusive results, whose numbers are uncertain, are shown with a selection of clear calls. Calls come from the whole dose curve; as a rule, active = well fitted inhibition curve with a large enough effect; inconclusive = small, poorly fitted or top-dose-only effect, or effect the other way; inactive = no such curve, though single readings can be large or run the other way. Potencies beside an inconclusive call are fits to weak or partial responses and may not hold up.

The chains behind the UniProt entries cited, without tags or fusion partners. Where a name states a change or a piece, a line headed by the entry shows the natural chain unless it says otherwise.
UniProt P51450: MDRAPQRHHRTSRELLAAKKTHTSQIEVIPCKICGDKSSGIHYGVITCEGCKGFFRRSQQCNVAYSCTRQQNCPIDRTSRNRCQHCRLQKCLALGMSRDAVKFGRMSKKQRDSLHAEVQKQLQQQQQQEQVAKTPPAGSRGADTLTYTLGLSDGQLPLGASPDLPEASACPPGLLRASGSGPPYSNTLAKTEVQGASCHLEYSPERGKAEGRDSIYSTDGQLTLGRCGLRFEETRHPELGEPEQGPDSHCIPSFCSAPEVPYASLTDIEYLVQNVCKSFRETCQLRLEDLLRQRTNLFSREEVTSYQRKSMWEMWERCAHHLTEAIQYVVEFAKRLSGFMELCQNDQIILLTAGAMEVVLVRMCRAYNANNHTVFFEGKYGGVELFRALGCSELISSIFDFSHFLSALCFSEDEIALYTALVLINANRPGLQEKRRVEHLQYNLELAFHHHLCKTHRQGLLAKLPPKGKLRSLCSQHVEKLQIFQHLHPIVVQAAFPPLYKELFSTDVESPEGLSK

These compounds were tested against Nuclear receptor ROR-gamma (Mus musculus) (UniProt P51450) (assay: qHTS for inhibitors of ROR gamma transcriptional activity). Conditions: Drosophila S2 Gal4-RORgamma UAS-luciferase reporter, 20 h; series mostly up to 53.6 µM.
Procedure, shortened: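 Compounds are pin-transferred onto Drosophila Schneider cells expressing a copper-inducible Gal4–ROR gamma transactivation domain fusion. After 1 hr, copper sulfate is added to 700 uM final; luciferase is read 20 hr later.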
Note: nearly all actives have a fitted effect of over 60% in size.
Potency is the fitted concentration of half-maximal effect.

Row | SMILES | Potency
1 | O=c1c(-c2ccccc2)c(O)nc(SCCN2CCOCC2)n1-c1ccccc1 | inactive
2 | CS(=O)(=O)N(CC(=O)NCC1CCCO1)c1cccc(Cl)c1 (stereo unspecified) | inconclusive: 35.5 µM [activator, single point]
3 | O=C1CCN(CCc2ccccc2)CCN1CCSc1ccc(Br)cc1 | inactive
4 | O=c1ccn(CCCBr)c(=O)[nH]1 | inactive
5 | COc1ccc(C(=O)N2CCc3ccc(NC(=O)c4ccccn4)cc3C2)cc1F | inconclusive: 12.6 µM [activator, partial curve]
6 | CC(=O)N(c1ccc(Cl)cc1)c1cn(C(C)=O)c2ccccc12 | inactive
7 | COc1ccccc1C(NC(C)=O)c1cc(Cl)c2cccnc2c1O (stereo unspecified) | active: 2.24 µM
8 | CCOC(=O)c1cc(-c2ccc(/C=C3/C(=O)N(c4ccc(C(=O)O)cc4)N=C3C)o2)ccc1Cl | inconclusive: 35.5 µM [inhibitor, single point]
9 | O=C(CN(Cc1ccco1)C(=O)c1ccccc1)Nc1ccc(Cl)c(Cl)c1 | inconclusive: 17.8 µM [activator, single point]
10 | N#Cc1nc(COc2cccc(Cl)c2)oc1NCc1ccco1 | inconclusive: 15.8 µM [activator, partial curve]
11 | Clc1ccc(OCCSc2ncccn2)cc1 | inconclusive: 2.82 µM [activator, partial curve]
12 | O=C(c1ccc(F)cc1)N1CCN(c2cc(N3CCCCC3)c(F)cc2[N+](=O)[O-])CC1 | inconclusive: 5.62 µM [activator, full curve]
13 | Cc1noc(C)c1CSc1nc2ccccc2c(=O)n1-c1ccc(Cl)cc1 | active: 11.2 µM
14 | COC(=O)c1cccc(NC(=O)CSc2nnc(C3CC3)n2C)c1 | inactive
15 | CCOc1cc(/C=C\c2[nH]c(=O)[nH]c(=O)c2[N+](=O)[O-])ccc1OC(C)CC (stereo unspecified) | inconclusive: 22.4 µM [inhibitor, single point]
16 | CC(NC(=O)c1ccc([N+](=O)[O-])o1)C12CC3CC(CC(C3)C1)C2 (stereo unspecified) | active: 2.51 µM
17 | O=C(/C=C/c1ccc(O)cc1)c1ccccc1O | inconclusive: 35.5 µM [inhibitor, single point]
18 | Cc1ccc(C)c(NC(=S)N(Cc2ccco2)C(C)c2cccs2)c1 (stereo unspecified) | active: 2.51 µM
19 | COC(=O)c1ccc(NS(=O)(=O)c2ccc(OC)cc2)cc1 | inconclusive: 0.0224 µM [activator, full curve, poor fit]
20 | C=C1C2CC[C@@]3(C)C(c4ccoc4)OC(=O)C[C@@]13OC1CC(OC(C)=O)C(C)(C)C(CC(=O)OC)[C@@]12C (stereo partly specified) | active: 2.82 µM
21 | COc1cc2c(C(=O)N3CCN(c4ccccc4)CC3)c(C)oc2cc1Br | inconclusive: 10 µM [activator, single point]
22 | COc1ccc2c(c1)CC1c3c(cc4c(c3-2)OCO4)CC[N+]1(C)[O-] (stereo unspecified) | inconclusive: 11.2 µM [inhibitor, partial curve, poor fit]
23 | CCOC(=O)c1c(NC(=S)Nc2ccccc2)sc2c1CCN(CCc1ccccc1)C2 | inactive
24 | O=C(Nc1cccc(C(F)(F)F)c1)N(Cc1ccc(Cl)cc1)CC(O)C(F)(F)F (stereo unspecified) | inconclusive: 31.6 µM [activator, single point]

An excerpt from above in order of SMILES length, falling:
Row | SMILES | Potency
8 | CCOC(=O)c1cc(-c2ccc(/C=C3/C(=O)N(c4ccc(C(=O)O)cc4)N=C3C)o2)ccc1Cl | inconclusive: 35.5 µM [inhibitor, single point]
24 | O=C(Nc1cccc(C(F)(F)F)c1)N(Cc1ccc(Cl)cc1)CC(O)C(F)(F)F (stereo unspecified) | inconclusive: 31.6 µM [activator, single point]
23 | CCOC(=O)c1c(NC(=S)Nc2ccccc2)sc2c1CCN(CCc1ccccc1)C2 | inactive
21 | COc1cc2c(C(=O)N3CCN(c4ccccc4)CC3)c(C)oc2cc1Br | inconclusive: 10 µM [activator, single point]
10 | N#Cc1nc(COc2cccc(Cl)c2)oc1NCc1ccco1 | inconclusive: 15.8 µM [activator, partial curve]

Next part

Row | SMILES | Potency
25 | CCC(C(=O)O)n1nnc(-c2ccc(-c3ccc(OC)cc3)cc2)n1 (stereo unspecified) | inconclusive: 11.2 µM [activator, partial curve, poor fit]
26 | COc1ccc(C=C(C#N)C#N)c(CSc2ccccn2)c1 | inconclusive: 35.5 µM [inhibitor, single point]
27 | c1ccc(Cn2c(CSc3nnnn3-c3ccccc3)nc3ccccc32)cc1 | inconclusive: 10 µM [inhibitor, partial curve]
28 | Cc1nn(C)c(C)c1C1Nc2ccccc2C(=O)N1O (stereo unspecified) | inconclusive: 2.24 µM [activator, partial curve, poor fit]
29 | O=C1C(Cc2ccc(Br)cc2)SC(=Nc2ccccc2)N1c1ccccc1 (stereo unspecified) | inconclusive: 25.1 µM [activator, single point]
30 | CCCCCCCc1n[nH]c(=S)n1Cc1ccccc1 | active: 1.26 µM
31 | CCOc1ccc(C2C(C(=O)c3cccs3)=C(O)C(=O)N2Cc2cccnc2)cc1OC (stereo unspecified) | inconclusive: 35.5 µM [activator, single point]
32 | COc1cccc(NS(=O)(=O)c2cc3c(cc2C)N(C)CCO3)c1 | inconclusive: 14.1 µM [activator, single point]
33 | CCN(C(N)=S)c1ccccc1 | active: 11.2 µM
34 | O=C(/C=C/c1cccnc1)c1ccccc1O | active: 17.8 µM
35 | O=C1OCC/C1=C\c1ccc2c(c1)OCO2 | inactive
36 | CN(C(=O)COC(=O)c1ccc(Cl)c(N)c1)c1ccccc1 | inactive
37 | Cc1c2ccccc2cc(Cc2ccccc2)[n+]1C | inactive
38 | Cc1cc(Cl)ccc1OCC(=O)Nc1ccccc1NS(=O)(=O)c1cccs1 | inconclusive: 14.1 µM [activator, partial curve]
39 | CSc1nncc(/C(C)=N\Nc2ccccc2C)n1 | inactive
40 | CC(C)Oc1ccc(C(=O)OC(C)C(=O)NC2CCCCC2C)cc1 (stereo unspecified) | inconclusive: 1.41 µM [inhibitor, single point]
41 | COc1ccccc1CNc1nc(-c2ccoc2)nc2ccccc12 | inconclusive: 31.6 µM [activator, single point]
42 | COc1ccc(O)c(/C=N/NC(=O)CCC(=O)Nc2ccc(C)cc2)c1 | active: 6.31 µM
43 | Cc1cccc(C(=O)NN/C=C/C(=O)c2ccccc2)c1 | active: 6.31 µM
44 | CCOC(=O)c1ccc(N2C(=O)c3n[nH]c(C)c3C2c2ccc(OC)cc2OC)cc1 (stereo unspecified) | inconclusive: 6.31 µM [activator, partial curve]
45 | Cc1ccc(NC(=S)N(CCN2CCCCC2)Cc2ccco2)cc1Cl | active: 14.1 µM
46 | O=C(NCc1ccco1)c1ccccc1NS(=O)(=O)c1ccc(Br)s1 | inconclusive: 14.1 µM [activator, single point]
47 | CCOC(=O)c1sc(=S)sc1SCc1cccc(C(F)(F)F)c1 | inconclusive: 3.55 µM [inhibitor, single point]
48 | O=C(Nc1ccc(S(=O)(=O)N2CCN(c3ccccc3)CC2)cc1)c1cccs1 | inconclusive: 2.82 µM [inhibitor, partial curve]

Row | SMILES | Potency
49 | Cc1nn(-c2ccccc2)c(N2CCCC2)c1/C=N/NC(=O)c1cc(-c2ccccn2)nc2ccccc12 | inconclusive: 10 µM [inhibitor, partial curve, poor fit]
50 | Cc1nnc(N2CCCC(C(=O)NCc3ccc(OC(C)C)cc3)C2)c2nn(-c3ccccc3)c(C)c12 (stereo unspecified) | inactive
51 | CC(=O)c1cccc(NC(=O)c2ccc(NS(C)(=O)=O)cc2)c1 | inactive
52 | Cc1csc2c(N3CCN(C(=O)Nc4ccccc4)CC3)ncnc12 | inconclusive: 35.5 µM [activator, single point]
53 | CCCCCCc1nc2c(=O)[nH]c3ccccc3c2o1 | inactive
54 | COc1cccc(N=CC2=C(O)CC(C)(C)CC2=O)c1 | inactive
55 | Oc1ccc(/C=N/Nc2nn3cnnc3c3ccccc23)cc1 | inactive
56 | Cc1cc(=O)oc2cc(NC(=O)C3CCCC3)ccc12 | inactive
57 | CCOc1cc(/C=N/NC(=O)Cn2nc([N+](=O)[O-])cc2C)cc(Br)c1OCc1ccccc1F | inconclusive: 11.2 µM [inhibitor, single point]
58 | CC1Cc2ccccc2N1C(=O)CSc1nnnn1-c1ccc2c(c1)OCCO2 (stereo unspecified) | inconclusive: 17.8 µM [activator, partial curve]
59 | COc1cc(/C=N/N2CCN(Cc3ccc(C)cc3)CC2)cc(OC)c1O | inconclusive: 7.08 µM [activator, partial curve]
60 | O=C(CO/N=C\c1ccccc1)Nc1ccccc1C(=O)N1CCOCC1 | inconclusive: 20 µM [activator, single point]
61 | Cc1ccc(-c2[nH]ncc2/C=N/n2c(COc3ccccc3C)nc3ccccc3c2=O)cc1 | inconclusive: 35.5 µM [inhibitor, single point]
62 | O=C(CCl)N(Cc1cc(=O)[nH]c2ccccc12)c1ccccc1 | inconclusive: 20 µM [inhibitor, partial curve, poor fit]
63 | O=C1C2C3C=CC(C3)C2C(=O)N1CCN1CCN(S(=O)(=O)/C=C/c2ccccc2)CC1 (stereo unspecified) | inactive
64 | Cn1c(CNc2nc(-c3ccccc3)cs2)nnc1SCC(=O)c1ccccc1 | inconclusive: 22.4 µM [inhibitor, single point]
65 | O=C(OC1CCCCC1=O)c1ccc(S(=O)(=O)Nc2ccccc2)cc1 (stereo unspecified) | inconclusive: 22.4 µM [activator, single point]
66 | CC1Sc2ccc(S(=O)(=O)N3CCC(C(=O)NCc4ccccc4)CC3)cc2NC1=O (stereo unspecified) | inconclusive: 15.8 µM [activator, single point]
67 | COc1ccc2c(C(=O)CCl)c[nH]c2c1 | inconclusive: 35.5 µM [inhibitor, single point]
68 | N#Cc1nc(COc2ccc(F)cc2)oc1NCCCn1ccnc1 | inconclusive: 12.6 µM [activator, single point]
69 | CC(C)(C)NC(=O)NC(=O)CN1CCN(C(c2ccccc2)c2ccccc2)CC1 | inconclusive: 14.1 µM [activator, single point]
70 | CC(C)(C)c1ccc2c(c1)OC(C(=O)N/N=C\c1ccccn1)CO2 (stereo unspecified) | inconclusive: 22.4 µM [inhibitor, partial curve, poor fit]
71 | O=C(Nc1ccc(F)cc1)c1cccc(N2C(=O)C3C4CCC(C4)C3C2=O)c1 (stereo unspecified) | inconclusive: 6.31 µM [activator, full curve]
